Patent US20150005320A9, “COMPOUNDS FOR INFLAMMATION AND IMMUNE-RELATED USES” (Synta Pharmaceuticals Corp., priority 2003, published 2015)
Some of these results come from one statement about several compounds together.

System: IL-2 production
Test: Inhibition of IL-2 production in PHA-activated Jurkat cells (ELISA)
Type: cell-based, human
Settings: 20 hours, bins in nM
Method: Jurkat cells were placed in a 96 well plate (0.5 million cells per well in 1% FBS medium) then test compounds of this invention were added at different concentrations. After 10 minutes, the cells were activated with PHA (final concentration 2.5 μg/mL) and incubated for 20 hours at 37° C. under CO2. The final volume was 200 μL. Following incubation, the cells were centrifuged and the supernatants collected and stored at −70° C. prior to assaying for IL-2 production. A commercial ELISA kit (IL-2 Eli-pair, Diaclone Research, Besancon, France) was used to detect production of IL-2, from which dose response curves were obtained. The IC50 value was calculated as the concentration at which 50% of maximum IL-2 production after stimulation was inhibited versus a non-stimulation control.

In the case of “N-(2′,5′-bis-trifluoromethyl-biphenyl-4-yl)-2-methyl-3-chloro benzamide [Compound 54]”, the IC50 is reported as under 100 nM.

For “N-(2′,5′-bis-trifluoromethyl-biphenyl-4-yl)-2-methyl-3-fluoro benzamide [Compound 55]”, the IC50 was under 100 nM.
